Molecules are shown by their SMILES.

This data set is described as follows: Sensory test of perfume raw materials in self-tanning cosmetic containing dimethylpyrazine. The conditions noted are these: score 1 to 5 in units of 0.5, four specialized panelists; perfume 0.1 mass % in Table 4 cosmetic with 1 mass % dimethylpyrazine.
`CCCCCC1CCC(=O)O1` (stereo not shown) [Aldehyde C-18, gamma-nonalactone]: the Evaluation result stood at 4.5.
Compound `C=CC(C)(O)CCC=C(C)CC` (stereo not shown) [Ethyl linalool, 3,7-dimethyl-1,6-nonadien-3-ol] yielded an Evaluation result of 4.0.
The compound `CCCCCC1C(=O)CCC1CC(=O)OC` (stereo not shown) [Methyl dihydrojasmonate, methyl dihydrojasmonate] showed an Evaluation result of 2.0.
On to `CC=CC(=O)C1C(C)=CCCC1(C)C` (stereo not drawn) [α-Damascone, 1-(2,2,6-trimethyl-2-cyclohexenyl)-2-buten-1-one], for which the Evaluation result was found to be 4.0.

Values taken from patent publication US20130280188A1, “SELF-TANNING COSMETIC” (KAO CORPORATION, priority 2012, published 2013).
